{"source": "patent US5262521A", "about": "(SRI International, priority 1991, dated 1993)", "experiment": "general procedure: Boc solid-phase peptide synthesis; DCC; 1-hydroxybenzotriazole added for recouplings and Boc-asparagine", "conditions": "whole synthesis, overall", "note": "Some peptides are written in HELM: one residue between dots, names in brackets for other building blocks, links after the first $."}
{"substance": "PEPTIDE1{S.L.R.R.S.S.[dA].G.[dA].N.C.F.R.Y.[am]}$$$$V2.0", "values": [{"measurement": "isolated yield", "value": 13.6, "unit": "%"}]}
{"substance": "PEPTIDE1{S.L.R.R.S.S.[dA].G.[dA].N.C.[dF].R.Y.[am]}$$$$V2.0", "values": [{"measurement": "isolated yield", "value": 42.3, "unit": "%"}]}
{"substance": "PEPTIDE1{S.L.R.R.S.S.[dA].G.[dA].N.C.[dF].R.[am]}$$$$V2.0", "values": [{"measurement": "isolated yield", "value": 6.0, "unit": "%"}]}
{"substance": "PEPTIDE1{S.L.R.R.S.S.[dA].G.[dA].N.S.F.R.Y.[am]}$$$$V2.0", "values": [{"measurement": "isolated yield", "value": 2.4, "unit": "%"}]}
{"substance": "PEPTIDE1{S.L.R.R.S.S.[dA].G.[dA].N.S.[dF].R.Y.[am]}$$$$V2.0", "values": [{"measurement": "isolated yield", "value": 56, "unit": "%"}]}
{"substance": "PEPTIDE1{S.L.R.R.S.S.[dA].G.[dA].N.[dS].F.R.Y.[am]}$$$$V2.0", "values": [{"measurement": "isolated yield", "value": 37.6, "unit": "%"}]}
